Test results as given in article doi:10.1101/2022.04.03.486873 (bioRxiv, 2022).
These are yes or no findings as the source states them, for the method shown.

Chains of the proteins cited; added tags and fusions are not shown. Residues count along the entry.
UniProt Q9HAU5, residues 761-1054: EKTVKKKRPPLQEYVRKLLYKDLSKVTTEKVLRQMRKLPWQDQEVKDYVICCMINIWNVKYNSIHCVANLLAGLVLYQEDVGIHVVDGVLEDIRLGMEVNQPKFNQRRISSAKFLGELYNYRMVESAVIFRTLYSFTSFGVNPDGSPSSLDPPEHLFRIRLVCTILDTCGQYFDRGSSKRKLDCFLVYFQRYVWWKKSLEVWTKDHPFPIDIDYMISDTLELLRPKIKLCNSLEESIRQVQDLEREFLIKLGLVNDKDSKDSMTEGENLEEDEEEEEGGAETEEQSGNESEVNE

Target: Avi-UPF2-MIF4GIII (biotinylated) (UniProt Q9HAU5)
Assay: SPR

B1: UPF3A-58-173-Iso2 (domain or fragment, UniProt Q9H1J1-2 58-173)
chain: KPREEKRTALSKVVIRRLPPGLTKEQLEEQLRPLPAHDYFEFFAADLSLYPHLYSRAYINFRNPDDILLFRDRFDGYIFLDSKDPEYKKFLETYCVEEEKTSANPETLLGEMEAKT
binding: no binding
